Experimental data from paper PMC4684349.
No constants are given. Whether binding was seen depends on the method and setting. In cells and extracts the contact can be indirect. These calls come from enrichment with a bait or labelling near it, and not all partners need be listed. Where a sequence is shown, tags or fusion partners need not be part of it.

Chains of the proteins cited; added tags and fusions are not shown. Residues count along the entry.
UniProt P39522, residues 21-585: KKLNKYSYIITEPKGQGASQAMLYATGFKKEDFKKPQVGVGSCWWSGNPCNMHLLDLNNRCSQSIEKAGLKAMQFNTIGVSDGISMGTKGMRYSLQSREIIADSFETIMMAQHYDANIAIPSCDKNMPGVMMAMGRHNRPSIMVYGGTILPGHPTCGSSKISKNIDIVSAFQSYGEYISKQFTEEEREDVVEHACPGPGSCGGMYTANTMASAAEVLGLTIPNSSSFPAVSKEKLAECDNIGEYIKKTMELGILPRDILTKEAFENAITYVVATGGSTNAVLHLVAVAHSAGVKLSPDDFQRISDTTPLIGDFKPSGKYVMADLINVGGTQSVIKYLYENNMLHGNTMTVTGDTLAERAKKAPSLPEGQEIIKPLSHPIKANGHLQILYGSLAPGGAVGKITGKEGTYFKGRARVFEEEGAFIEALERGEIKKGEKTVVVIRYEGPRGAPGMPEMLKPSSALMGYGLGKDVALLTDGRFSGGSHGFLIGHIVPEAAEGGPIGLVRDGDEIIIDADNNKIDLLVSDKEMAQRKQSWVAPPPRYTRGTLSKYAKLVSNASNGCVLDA

T1: Bat1-FLAG (S. cerevisiae) (UniProt P38891)
T1 sequence: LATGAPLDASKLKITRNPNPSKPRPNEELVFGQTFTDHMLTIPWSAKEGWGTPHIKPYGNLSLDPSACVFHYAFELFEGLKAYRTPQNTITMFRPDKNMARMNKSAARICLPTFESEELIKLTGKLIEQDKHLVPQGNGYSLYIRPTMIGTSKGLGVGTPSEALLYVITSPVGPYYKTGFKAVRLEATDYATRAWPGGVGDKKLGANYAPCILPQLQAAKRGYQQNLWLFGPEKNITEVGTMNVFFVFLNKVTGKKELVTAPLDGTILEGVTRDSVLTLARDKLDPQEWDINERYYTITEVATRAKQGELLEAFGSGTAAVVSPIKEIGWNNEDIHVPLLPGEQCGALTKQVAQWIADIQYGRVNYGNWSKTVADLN

B1: Leu4 (enzyme, UniProt P06208 1-619)
chain: MVKESIIALAEHAASRASRVIPPVKLAYKNMLKDPSSKYKPFNAPKLSNRKWPDNRITRAPRWLSTDLRDGNQSLPDPMSVEQKKEYFHKLVNIGFKEIEVSFPSASQTDFDFTRYAVENAPDDVSIQCLVQSREHLIKRTVEALTGAKKATIHTYLATSDMFREIVFNMSREEAISKAVEATKLVRKLTKDDPSQQATRWSYEFSPECFSDTPGEFAVEICEAVKKAWEPTEENPIIFNLPATVEVASPNVYADQIEYFATHITEREKVCISTHCHNDRGCGVAATELGMLAGADRVEGCLFGNGERTGNVDLVTVAMNMYTQGVSPNLDFSDLTSVLDVVERCNKIPVSQRAPYGGDLVVCAFSGSHQDAIKKGFNLQNKKRAQGETQWRIPYLPLDPKDIGRDYEAVIRVNSQSGKGGAAWVILRSLGLDLPRNMQIEFSSAVQDHADSLGRELKSDEISKLFKEAYNYNDEQYQAISLVNYNVEKFGTERRVFTGQVKVGDQIVDIEGTGNGPISSLVDALSNLLNVRFAVANYTEHSLGSGSSTQAASYIHLSYRRNADNEKAYKWGVGVSEDVGDSSVRAIFATINNIIHSGDVSIPSLAEVEGKNAAASGSA
B2: Ape2 (enzyme, UniProt P32454 53-952)
chain: NVMWKQSKLTPPRFVKIMNRRPLFTETSHACAKCQKTSQLLNKTPNREILPDNVVPLHYDLTVEPDFKTFKFEGSVKIELKINNPAIDTVTLNTVDTDIHSAKIGDVTSSEIISEEEQQVTTFAFPKGTMSSFKGNAFLDIKFTGILNDNMAGFYRAKYEDKLTGETKYMATTQMEPTDARRAFPCFDEPNLKASFAITLVSDPSLTHLSNMDVKNEYVKDGKKVTLFNTTPKMSTYLVAFIVAELKYVESKNFRIPVRVYATPGNEKHGQFAADLTAKTLAFFEKTFGIQYPLPKMDNVAVHEFSAGAMENWGLVTYRVVDLLLDKDNSTLDRIQRVAEVVQHELAHQWFGNLVTMDWWEGLWLNEGFATWMSWYSCNEFQPEWKVWEQYVTDTLQHALSLDSLRSSHPIEVPVKKADEINQIFDAISYSKGASLLRMISKWLGEETFIKGVSQYLNKFKYGNAKTEDLWDALADASGKDVRSVMNIWTKKVGFPVISVSEDGNGKITFRQNRYLSTADVKPDEDKTIYPVFLALKTKNGVDSSVVLSERSKTIELEDPTFFKVNSEQSGIYITSYTDERWAKLGQQADLLSVEDRVGLVADVKTLSASGYTSTTNFLNLVSKWNNEKSFVVWDQIINSISSMKSTWLFEPKETQDALDNFTKQLISGMTHHLGWEFKSSDSFSTQRLKVTMFGAACAARDADVEKAALKMFTDYCSGNKEAIPALIKPIVFNTVARVGGAENYEKVYKIYLDPISNDEKLAALRSLGRFKEPKLLERTLGYLFDGTVLNQDIYIPMQGMRAHQEGVEALWNWVKKNWDELVKRLPPGLSMLGSVVTLGTSGFTSMQKIDEIKKFFATKSTKGFDQSLAQSLDTITSKAQWVNRDRDVVNKYLKENGYY
B3: Aco1 (enzyme, UniProt P19414 17-778)
chain: ATVSNLTRDSKVNQNLLEDHSFINYKQNVETLDIVRKRLNRPFTYAEKILYGHLDDPHGQDIQRGVSYLKLRPDRVACQDATAQMAILQFMSAGLPQVAKPVTVHCDHLIQAQVGGEKDLKRAIDLNKEVYDFLASATAKYNMGFWKPGSGIIHQIVLENYAFPGALIIGTDSHTPNAGGLGQLAIGVGGADAVDVMAGRPWELKAPKILGVKLTGKMNGWTSPKDIILKLAGITTVKGGTGKIVEYFGDGVDTFSATGMGTICNMGAEIGATTSVFPFNKSMIEYLEATGRGKIADFAKLYHKDLLSADKDAEYDEVVEIDLNTLEPYINGPFTPDLATPVSKMKEVAVANNWPLDVRVGLIGSCTNSSYEDMSRSASIVKDAAAHGLKSKTIFTVTPGSEQIRATIERDGQLETFKEFGGIVLANACGPCIGQWDRRDIKKGDKNTIVSSYNRNFTSRNDGNPQTHAFVASPELVTAFAIAGDLRFNPLTDKLKDKDGNEFMLKPPHGDGLPQRGYDAGENTYQAPPADRSTVEVKVSPTSDRLQLLKPFKPWDGKDAKDMPILIKAVGKTTTDHISMAGPWLKYRGHLENISNNYMIGAINAENKKANCVKNVYTGEYKGVPDTARDYRDQGIKWVVIGDENFGEGSSREHAALEPRFLGGFAIITKSFARIHETNLKKQGLLPLNFKNPADYDKINPDDRIDILGLAELAPGKPVTMRVHPKNGKPWDAVLTHTFNDEQIEWFKYGSALNKIKADEKK
B4: Ilv5 (enzyme, UniProt P06168 48-395)
chain: LKQINFGGTVETVYERADWPREKLLDYFKNDTFALIGYGSQGYGQGLNLRDNGLNVIIGVRKDGASWKAAIEDGWVPGKNLFTVEDAIKRGSYVMNLLSDAAQSETWPAIKPLLTKGKTLYFSHGFSPVFKDLTHVEPPKDLDVILVAPKGSGRTVRSLFKEGRGINSSYAVWNDVTGKAHEKAQALAVAIGSGYVYQTTFEREVNSDLYGERGCLMGGIHGMFLAQYDVLRENGHSPSEAFNETVEEATQSLYPLIGKYGMDYMYDACSTTARRGALDWYPIFKNALKPVFQDLYESTKNGTETKRSLEFNSQPDYREKLEKELDTIRNMEIWKVGKEVRKLRPENQ

biological target: T1, Bat1-FLAG (S. cerevisiae); assay: affinity purification with mass spectrometry; Bat1-FLAG expressed in the bat1 mutant strain and immunoprecipitated by FLAG; co-immunoprecipitated proteins identified by LC-MS/MS; control immunoprecipitates from FLAG-untagged cells

binding	Molecule
binds	Ilv3 (from UniProt P39522 21-585) (enzyme)
binds	B1
binds	B2
binds	B3
binds	B4
